According to article PMC2905701 (Bioinorganic Chemistry and Applications, 2010):

Assay: general procedure: Fmoc solid-phase peptide synthesis; Rink Amide MBHA resin or 2-chlorotrityl-chloride resin bearing a Rink-Bernatowitz linker; DIC/HOBt; if necessary TBTU/HOBt/DIEA
Details: whole synthesis, amino acid content of the resin

Q: Which isolated yield does the source give for [D-Phe^12, Aib^14]CRH here?
A: The isolated yield was 41%.

Q: With [D-Phe^12, Aib^15]CRH as the substance, how does the isolated yield read?
A: Its isolated yield is 38%.

Q: For [D-Phe^12,Cys(Et)^21, Cys(Pr)^38]CRH, which isolated yield is on record?
A: Its isolated yield is 33%.

Q: With [D-Phe^12,Cys(Et)^21]CRH as the substance, how does the isolated yield read?
A: Its isolated yield is 39%.

Q: With [D-Phe^12,Cys(Pr)^21, Cys(Et)^38]CRH as the substance, how does the isolated yield read?
A: The isolated yield was 35%.

Q: Which isolated yield does the source give for [D-Phe^12,Cys(Pr)^21, Cys(Pr)^38]CRH here?
A: Its isolated yield is 36%.

Q: Which isolated yield does the source give for [D-Phe^12,Cys(Pr)^38]CRH here?
A: The isolated yield was 37%.
